The values that follow come from PMC3422280.

These are yes or no findings as the source states them, for the method shown. Binding seen in cells or lysates may run through a third protein. Some results given as binding are weak or reduced against the parent protein; the word gives no strength.

The target in the experiment is T1, endogenous OKL38 of U2OS cells (human (endogenous in U2OS)) (UniProt Q9UJX0).
T1 sequence: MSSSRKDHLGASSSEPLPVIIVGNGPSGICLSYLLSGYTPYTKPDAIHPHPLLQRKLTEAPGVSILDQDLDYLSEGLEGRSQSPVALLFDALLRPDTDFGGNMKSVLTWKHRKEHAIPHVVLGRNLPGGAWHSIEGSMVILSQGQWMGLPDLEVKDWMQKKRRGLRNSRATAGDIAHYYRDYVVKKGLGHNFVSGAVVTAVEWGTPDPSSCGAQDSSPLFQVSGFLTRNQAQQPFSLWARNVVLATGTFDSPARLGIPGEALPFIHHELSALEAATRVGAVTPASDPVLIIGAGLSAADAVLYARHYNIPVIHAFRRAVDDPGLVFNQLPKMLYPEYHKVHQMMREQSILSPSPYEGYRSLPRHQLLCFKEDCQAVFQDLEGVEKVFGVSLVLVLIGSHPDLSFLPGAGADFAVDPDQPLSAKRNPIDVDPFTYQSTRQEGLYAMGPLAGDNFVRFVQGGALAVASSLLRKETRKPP
The experiment can be described thus: co-IP; U2OS nuclear extracts precipitated with anti-p53 or anti-OKL38 antibody (normal mouse or rabbit IgG as control); blots for p53 and OKL38.

Regarding “endogenous p53 of U2OS cells (from UniProt P04637 1-393)”, the binding entry is “binds”.
